Results: PMC6185109

How the values were obtained:
[1] = target: T1, FLAG-tagged SNF2 domain of SUUR (amino acids 1 to 278) fused to the SV40 NLS (Drosophila melanogaster) (UniProt Q9VTE2); assay: affinity purification with mass spectrometry; heat-shocked 0-24 hr embryos fixed 20 min in 2% formaldehyde, nuclei sonicated, cleared lysate on anti-FLAG M2 affinity gel 2 hr at 4°C, washed in LB3 and LB3 with 1M NaCl, eluted with 3X FLAG peptide; Oregon R as no-FLAG control; three biological replicates
T1 sequence: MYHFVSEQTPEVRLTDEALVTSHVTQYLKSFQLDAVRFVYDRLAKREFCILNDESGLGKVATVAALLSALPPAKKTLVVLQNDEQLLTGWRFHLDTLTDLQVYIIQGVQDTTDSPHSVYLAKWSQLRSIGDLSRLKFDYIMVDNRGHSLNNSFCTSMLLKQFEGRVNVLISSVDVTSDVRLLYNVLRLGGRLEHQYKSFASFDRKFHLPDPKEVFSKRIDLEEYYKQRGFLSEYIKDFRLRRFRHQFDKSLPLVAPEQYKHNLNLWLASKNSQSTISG

[2] = target: T2, FLAG-tagged full-length SUUR (Suppressor of Underreplication protein) (Drosophila melanogaster) (UniProt Q9VTE2); assay: as above
T2 sequence: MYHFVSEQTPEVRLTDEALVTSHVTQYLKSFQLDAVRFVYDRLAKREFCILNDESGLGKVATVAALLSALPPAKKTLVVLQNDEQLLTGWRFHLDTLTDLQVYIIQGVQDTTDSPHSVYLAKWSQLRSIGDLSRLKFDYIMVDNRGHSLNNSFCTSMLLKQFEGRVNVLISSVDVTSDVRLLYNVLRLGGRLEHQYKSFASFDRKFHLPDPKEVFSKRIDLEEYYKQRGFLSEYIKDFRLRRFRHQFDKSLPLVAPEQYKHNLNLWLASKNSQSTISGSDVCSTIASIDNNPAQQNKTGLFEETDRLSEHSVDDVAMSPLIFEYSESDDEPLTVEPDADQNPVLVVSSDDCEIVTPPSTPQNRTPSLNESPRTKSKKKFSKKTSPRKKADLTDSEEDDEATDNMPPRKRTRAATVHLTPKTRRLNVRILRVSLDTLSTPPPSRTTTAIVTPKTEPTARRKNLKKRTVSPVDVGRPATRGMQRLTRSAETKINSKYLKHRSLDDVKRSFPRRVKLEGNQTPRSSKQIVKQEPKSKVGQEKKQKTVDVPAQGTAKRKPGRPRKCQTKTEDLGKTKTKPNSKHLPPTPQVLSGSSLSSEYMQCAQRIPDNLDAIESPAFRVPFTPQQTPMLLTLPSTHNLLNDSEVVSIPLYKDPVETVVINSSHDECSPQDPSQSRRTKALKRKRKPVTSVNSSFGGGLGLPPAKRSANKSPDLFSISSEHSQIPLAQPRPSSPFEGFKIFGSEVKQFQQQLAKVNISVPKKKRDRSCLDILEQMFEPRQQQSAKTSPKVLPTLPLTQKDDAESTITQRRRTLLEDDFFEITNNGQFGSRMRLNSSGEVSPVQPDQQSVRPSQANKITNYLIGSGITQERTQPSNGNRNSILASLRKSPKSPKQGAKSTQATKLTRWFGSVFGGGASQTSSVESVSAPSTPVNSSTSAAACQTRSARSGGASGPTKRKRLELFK

binding [1]: no binding
binding [2]: binds
B1: Rif1 (Rap1-interacting factor 1) (protein, UniProt Q9XZ34 1-1416)
chain: MDVDFGAQAGQSYRTVQLSAKEVLAAGRRQHYCNMIDLLASSCKSSGLIATSFTDDELVEFWLGDILPLMFDADRKIQDCAVAALAEALVALDVSVIHSAKCWPQIRSEFVDKYTIIIGEMRDAKNSNWHKIWTLLVQIMDEDLLRGCVYINKFLALVELGFRNPDNGVRSEAFLCWRVLIKIFAAYDELTSAKRLRLLLIPLRTSQSRSSHVSGIKLRVWWYLLSCLDHELPKSFDSAVEHFLAFMLGGGPRNLATGLAHNYQTARELALPCLVALWGVESSEPLQRLMRELRLETLVQPSPLMSVEVFQQHWKPLLAAAVSGLKLLTENDATEAEQLLLQLLVRNLCLAMFRLAVAPFNVACCSEIEKILQAEDNSGGRVVRALFNTIAADNLVMERVSGSDHLDVLEAYLKLVLKSKTEVPAAILQRSIACIFAVDRIEANNQNEFRMLGSFAELLMQANDEEDFEGFAFKLQVWRQVSQALSNYLRNNALEYRVAHNASLLDTWLLWPLQTLAAFAGRRASNSFDASFCDQWRQLVNAGQNAPGRKKFLTDLKATLTDLLKSKDEPLFAELFDAYVTSLIKFGLCKEAPLYKDVFGLLQTIFEQPSSQKTLEACLNTLRNLVVELRQNELMVVFDSLKPTLSSGIQCWNKMKCEGGFLEEWKRGIQEKFRKLPMKTMANQLKELFKADDLFVIIPSVWSLNPEKLTDRQKERFAEKSDIPALYNDMSQSQDSASIKPWTPKKVVIAKSKQGELALTGKDDNGEVIDITASEESEKEPVRVDVVTPIRKKPGRKSQAQKELEAAARAASLAEEPPKRQTRTRAAQKETEQVAQPQPAFEPQLRSPKKLPPSPVVQSTAAAVKQAKVAKPTPVVVIAQSEDLFPEVAAEPEPQPEPVKKPDPVPETTQLTPPDVPLEAVPSTQLPGSSGDPAASAGAVAAGEMSPKKSGTRIYNLSSPPDRKQTNNSSSPTLRPKPTGHLTGRGAQLINMIRNKKLDAASGSPYACMSTSRLVHQVTPARAQDRAEQVSTPTSELNELTGTDHTSTPIQAPPSKDLLVFSKRLPSPSASPSVSILKRKLRCESLDDVTLDSPALKRKRVSFHDPPVSVTKEYLRDAEETRSSLKPKRCLLMDKVAQTTEMRQALRRRGRLDSIIEIERFASEQTARTATTDKSLDKSTGEAPEEDAFTSLKWNDTGNAHNISISEEPVKAMEVESELETAGQDLAIMDPEAALDLAVAQLPLESVLQRYFDKSPLKSAGMLAKFLSAQMTANEKLKTNVLETLSENHSKDFLDHAVRENLSSVVCDRLNPTSVLEYVCAKSKISASCRNGLLAQVPEILKSGPRSDSERLAFVQQLMVQCSPGDDLLLDLIDLLMRTRRERNNSTSTHISKGVVSAVGSPDNVAETAADSSSNL

These are yes or no findings as the source states them, for the method shown. In cells and extracts the contact can be indirect. These calls come from enrichment with a bait or labelling near it, and not all partners need be listed. For some assays here: A no says only that the protein was not detected with the bait. Where a sequence is shown, tags or fusion partners need not be part of it.
